Laboratory results published in patent US12274756B2, “Methods of treating and diagnosing epilepsy” (YALE UNIVERSITY, priority 2019, dated 2025).
“Also recorded” adds a separate entry of the source. For at least one compound, name, drawing or mass did not settle the structure.

Experiments:
[1] = tested on: control superficial layer neurons; experiment: Whole cell patch clamp recording in acute slices, control neurons; format: cell-based, mice; conditions: control (GFP) superficial layer neurons
Rheb^CA neurons = experiment: Whole cell patch clamp recording in acute slices, Rheb^CA (FCM) neurons; format: cell-based, mice; conditions: Rheb^CA neurons recorded at resting membrane potential
Experimental: Each DNA plasmid was diluted in sterile PBS (pH 7.4) to a final concentration of 1.5-3 μg/μl (specific concentrations below). About 1 μl of DNA solution containing 0.1% fast green was injected into the lateral ventricle of E15.5±0.5 fetuses with a glass pipette. After injection, PBS soaked tweezer-type electrodes (model 520, BTX) were positioned on heads of the fetuses across the uterine wall and 6 square-pulses (42V, 50 ms duration, 950 ms intervals) were applied using a pulse generator (ECM830, BTX), Mice were prescreened for successful electroporation on a fluorescence enabled stereo microscope (SZX16, Olympus) prior to recruitment for EEG monitoring. […]
1-5-week-old mice were used for acute slices. […] Recordings were acquired with an amplifier (Axopatch 200B, Molecular Devices), The resting membrane potential was recorded within the first 10 seconds after achieving whole, cell configuration in current-clamp mode, while the cell is at rest without any holding current. The membrane conductance was calculated using the average membrane potential change from ten hyperpolarizing current injections of −500 pA in current-clamp mode when the cell is at rest. The action potential half width was calculated at half of the peak amplitude of a single action potential induced by current injection. […]

[2] = tested on: mice containing Rheb^CA neurons; experiment: Video-EEG seizure monitoring of mice containing FCM (Rheb^CA neurons); format: in vivo; conditions: treatment paradigm 1 mg/kg every 49 hours from P1 to 2 months of age
[3] = tested on: HCN4 expression in Rheb^CA neurons; experiment: HCN4 immunostaining in Rheb^CA mice treated with vehicle or rapamycin; format: in vivo; conditions: 1 mg/kg every 49 hours from P1 to 2 months of age, compared to vehicle-treated mice

SMILES	depolarization and repetitive firing upon forskolin [1]	membrane potential upon forskolin bath-application (Rheb^CA neurons)	FCM and development of seizures [2]	HCN4 expression in Rheb^CA neurons [3]
C=C[C@@]1(C)CC(=O)[C@]2(O)[C@@]3(C)[C@@H](O)CCC(C)(C)[C@@H]3[C@H](O)[C@H](OC(C)=O)[C@@]2(C)O1 [forskolin]	did not occur; also recorded: but not control neurons	significantly depolarized	–	–
CO[C@H]1C[C@@H]2CC[C@@H](C)[C@@](O)(O2)C(=O)C(=O)N2CCCC[C@H]2C(=O)O[C@H]([C@H](C)C[C@@H]2CC[C@@H](O)[C@H](OC)C2)CC(=O)[C@H](C)/C=C(\C)[C@@H](O)[C@@H](OC)C(=O)[C@H](C)C[C@H](C)/C=C/C=C/C=C/1C [rapamycin]	–	–	prevented FCM and the development of seizures	prevented the expression of HCN4; also recorded: eliminated
